From the supplement of paper PMC10849652
Some of the results follow.

Protein sequences, listed by entry. Tags and fused reporters are not part of them. Lines headed by an entry give the natural chain unless they say otherwise; changes in a name come on top.
UniProt Q9HCM4: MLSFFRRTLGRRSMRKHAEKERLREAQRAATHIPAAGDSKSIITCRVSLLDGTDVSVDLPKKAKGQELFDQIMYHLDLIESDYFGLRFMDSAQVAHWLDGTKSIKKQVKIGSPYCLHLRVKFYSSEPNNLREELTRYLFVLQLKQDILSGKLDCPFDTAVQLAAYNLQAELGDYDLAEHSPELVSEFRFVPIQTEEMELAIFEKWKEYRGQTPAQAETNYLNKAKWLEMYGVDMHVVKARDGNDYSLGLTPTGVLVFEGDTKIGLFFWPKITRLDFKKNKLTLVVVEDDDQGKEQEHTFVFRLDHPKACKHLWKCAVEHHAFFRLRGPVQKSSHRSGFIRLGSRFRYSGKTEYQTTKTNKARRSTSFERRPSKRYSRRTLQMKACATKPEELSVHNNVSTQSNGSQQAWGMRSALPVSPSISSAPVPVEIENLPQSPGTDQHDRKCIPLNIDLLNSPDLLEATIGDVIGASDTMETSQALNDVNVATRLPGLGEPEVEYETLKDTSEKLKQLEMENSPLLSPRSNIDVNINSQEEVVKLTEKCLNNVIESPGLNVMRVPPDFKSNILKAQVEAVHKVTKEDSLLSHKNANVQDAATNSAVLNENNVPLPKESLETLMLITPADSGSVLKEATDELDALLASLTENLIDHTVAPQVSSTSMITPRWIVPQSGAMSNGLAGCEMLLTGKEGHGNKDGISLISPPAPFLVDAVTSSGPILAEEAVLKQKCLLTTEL
UniProt Q5VUB5: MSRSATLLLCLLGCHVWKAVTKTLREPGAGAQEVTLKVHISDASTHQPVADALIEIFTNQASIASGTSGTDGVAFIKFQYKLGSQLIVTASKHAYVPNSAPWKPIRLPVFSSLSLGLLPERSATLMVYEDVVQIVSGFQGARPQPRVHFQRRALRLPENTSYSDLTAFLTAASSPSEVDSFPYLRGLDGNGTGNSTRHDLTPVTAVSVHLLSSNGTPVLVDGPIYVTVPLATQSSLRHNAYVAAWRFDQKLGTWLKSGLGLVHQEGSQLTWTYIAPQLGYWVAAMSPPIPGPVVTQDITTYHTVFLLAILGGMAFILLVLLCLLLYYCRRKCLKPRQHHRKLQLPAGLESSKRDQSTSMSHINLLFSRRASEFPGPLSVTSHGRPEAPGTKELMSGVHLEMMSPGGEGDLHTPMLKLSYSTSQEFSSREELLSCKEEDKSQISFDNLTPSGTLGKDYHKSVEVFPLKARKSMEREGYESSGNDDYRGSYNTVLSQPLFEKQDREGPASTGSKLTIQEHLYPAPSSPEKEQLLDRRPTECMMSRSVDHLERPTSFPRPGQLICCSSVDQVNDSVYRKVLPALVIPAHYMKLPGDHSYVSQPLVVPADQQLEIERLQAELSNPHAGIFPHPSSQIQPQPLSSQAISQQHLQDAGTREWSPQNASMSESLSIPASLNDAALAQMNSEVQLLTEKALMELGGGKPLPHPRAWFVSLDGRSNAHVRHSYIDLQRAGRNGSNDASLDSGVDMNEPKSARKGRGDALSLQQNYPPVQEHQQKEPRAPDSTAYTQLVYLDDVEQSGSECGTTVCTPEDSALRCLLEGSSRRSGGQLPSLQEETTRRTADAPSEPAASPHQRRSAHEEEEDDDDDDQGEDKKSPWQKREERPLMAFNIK
UniProt Q9Y6I3: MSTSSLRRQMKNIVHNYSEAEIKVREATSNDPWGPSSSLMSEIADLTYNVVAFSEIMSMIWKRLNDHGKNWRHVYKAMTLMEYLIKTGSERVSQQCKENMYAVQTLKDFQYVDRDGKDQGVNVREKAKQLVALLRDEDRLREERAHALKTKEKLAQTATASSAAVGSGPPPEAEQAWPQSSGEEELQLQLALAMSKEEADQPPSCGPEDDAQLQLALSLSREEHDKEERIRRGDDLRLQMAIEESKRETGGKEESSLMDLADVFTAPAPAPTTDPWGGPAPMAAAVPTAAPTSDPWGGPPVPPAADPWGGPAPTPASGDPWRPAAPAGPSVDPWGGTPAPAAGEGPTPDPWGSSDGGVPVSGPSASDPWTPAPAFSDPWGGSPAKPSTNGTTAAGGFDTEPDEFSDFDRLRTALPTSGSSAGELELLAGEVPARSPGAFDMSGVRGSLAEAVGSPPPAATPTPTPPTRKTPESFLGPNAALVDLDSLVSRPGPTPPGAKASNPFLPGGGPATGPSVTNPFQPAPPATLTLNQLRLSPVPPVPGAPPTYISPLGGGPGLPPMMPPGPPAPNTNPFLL
UniProt Q9H8W3: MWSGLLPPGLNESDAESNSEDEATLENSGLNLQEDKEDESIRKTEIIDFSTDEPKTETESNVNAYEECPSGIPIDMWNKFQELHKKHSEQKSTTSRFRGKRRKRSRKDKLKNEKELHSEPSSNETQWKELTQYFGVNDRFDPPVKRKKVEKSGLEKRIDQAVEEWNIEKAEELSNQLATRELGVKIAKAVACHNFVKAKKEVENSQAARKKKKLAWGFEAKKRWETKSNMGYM
UniProt Q99504: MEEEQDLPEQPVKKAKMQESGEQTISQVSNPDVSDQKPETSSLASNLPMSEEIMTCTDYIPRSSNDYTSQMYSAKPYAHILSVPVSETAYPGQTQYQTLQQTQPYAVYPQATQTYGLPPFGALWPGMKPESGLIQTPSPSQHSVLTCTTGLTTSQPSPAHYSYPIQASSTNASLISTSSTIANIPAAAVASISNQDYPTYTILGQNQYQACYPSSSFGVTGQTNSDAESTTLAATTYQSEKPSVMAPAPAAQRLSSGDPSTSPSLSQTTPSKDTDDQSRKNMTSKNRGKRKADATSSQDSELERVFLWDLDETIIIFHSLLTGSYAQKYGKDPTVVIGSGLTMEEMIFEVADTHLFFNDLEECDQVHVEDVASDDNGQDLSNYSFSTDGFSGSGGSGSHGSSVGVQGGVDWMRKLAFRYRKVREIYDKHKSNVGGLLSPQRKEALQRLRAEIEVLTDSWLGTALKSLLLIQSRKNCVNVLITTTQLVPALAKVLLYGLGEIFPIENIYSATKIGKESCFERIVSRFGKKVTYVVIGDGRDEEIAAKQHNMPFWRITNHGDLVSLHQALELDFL
UniProt Q8IWE2: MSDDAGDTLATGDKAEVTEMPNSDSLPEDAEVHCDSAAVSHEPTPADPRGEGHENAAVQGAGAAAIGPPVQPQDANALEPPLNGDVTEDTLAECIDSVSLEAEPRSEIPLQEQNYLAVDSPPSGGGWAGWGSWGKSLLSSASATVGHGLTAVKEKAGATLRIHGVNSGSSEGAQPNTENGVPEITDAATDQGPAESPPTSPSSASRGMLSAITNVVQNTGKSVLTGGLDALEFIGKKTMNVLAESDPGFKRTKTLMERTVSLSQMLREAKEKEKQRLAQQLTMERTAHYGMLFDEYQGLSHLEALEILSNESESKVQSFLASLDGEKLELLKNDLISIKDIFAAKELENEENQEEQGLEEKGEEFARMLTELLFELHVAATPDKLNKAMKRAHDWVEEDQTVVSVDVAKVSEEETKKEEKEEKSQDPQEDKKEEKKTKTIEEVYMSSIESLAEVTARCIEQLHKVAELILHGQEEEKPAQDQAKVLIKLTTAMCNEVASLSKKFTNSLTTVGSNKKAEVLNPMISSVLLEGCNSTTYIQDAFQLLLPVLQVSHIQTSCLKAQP
UniProt Q9HCE0: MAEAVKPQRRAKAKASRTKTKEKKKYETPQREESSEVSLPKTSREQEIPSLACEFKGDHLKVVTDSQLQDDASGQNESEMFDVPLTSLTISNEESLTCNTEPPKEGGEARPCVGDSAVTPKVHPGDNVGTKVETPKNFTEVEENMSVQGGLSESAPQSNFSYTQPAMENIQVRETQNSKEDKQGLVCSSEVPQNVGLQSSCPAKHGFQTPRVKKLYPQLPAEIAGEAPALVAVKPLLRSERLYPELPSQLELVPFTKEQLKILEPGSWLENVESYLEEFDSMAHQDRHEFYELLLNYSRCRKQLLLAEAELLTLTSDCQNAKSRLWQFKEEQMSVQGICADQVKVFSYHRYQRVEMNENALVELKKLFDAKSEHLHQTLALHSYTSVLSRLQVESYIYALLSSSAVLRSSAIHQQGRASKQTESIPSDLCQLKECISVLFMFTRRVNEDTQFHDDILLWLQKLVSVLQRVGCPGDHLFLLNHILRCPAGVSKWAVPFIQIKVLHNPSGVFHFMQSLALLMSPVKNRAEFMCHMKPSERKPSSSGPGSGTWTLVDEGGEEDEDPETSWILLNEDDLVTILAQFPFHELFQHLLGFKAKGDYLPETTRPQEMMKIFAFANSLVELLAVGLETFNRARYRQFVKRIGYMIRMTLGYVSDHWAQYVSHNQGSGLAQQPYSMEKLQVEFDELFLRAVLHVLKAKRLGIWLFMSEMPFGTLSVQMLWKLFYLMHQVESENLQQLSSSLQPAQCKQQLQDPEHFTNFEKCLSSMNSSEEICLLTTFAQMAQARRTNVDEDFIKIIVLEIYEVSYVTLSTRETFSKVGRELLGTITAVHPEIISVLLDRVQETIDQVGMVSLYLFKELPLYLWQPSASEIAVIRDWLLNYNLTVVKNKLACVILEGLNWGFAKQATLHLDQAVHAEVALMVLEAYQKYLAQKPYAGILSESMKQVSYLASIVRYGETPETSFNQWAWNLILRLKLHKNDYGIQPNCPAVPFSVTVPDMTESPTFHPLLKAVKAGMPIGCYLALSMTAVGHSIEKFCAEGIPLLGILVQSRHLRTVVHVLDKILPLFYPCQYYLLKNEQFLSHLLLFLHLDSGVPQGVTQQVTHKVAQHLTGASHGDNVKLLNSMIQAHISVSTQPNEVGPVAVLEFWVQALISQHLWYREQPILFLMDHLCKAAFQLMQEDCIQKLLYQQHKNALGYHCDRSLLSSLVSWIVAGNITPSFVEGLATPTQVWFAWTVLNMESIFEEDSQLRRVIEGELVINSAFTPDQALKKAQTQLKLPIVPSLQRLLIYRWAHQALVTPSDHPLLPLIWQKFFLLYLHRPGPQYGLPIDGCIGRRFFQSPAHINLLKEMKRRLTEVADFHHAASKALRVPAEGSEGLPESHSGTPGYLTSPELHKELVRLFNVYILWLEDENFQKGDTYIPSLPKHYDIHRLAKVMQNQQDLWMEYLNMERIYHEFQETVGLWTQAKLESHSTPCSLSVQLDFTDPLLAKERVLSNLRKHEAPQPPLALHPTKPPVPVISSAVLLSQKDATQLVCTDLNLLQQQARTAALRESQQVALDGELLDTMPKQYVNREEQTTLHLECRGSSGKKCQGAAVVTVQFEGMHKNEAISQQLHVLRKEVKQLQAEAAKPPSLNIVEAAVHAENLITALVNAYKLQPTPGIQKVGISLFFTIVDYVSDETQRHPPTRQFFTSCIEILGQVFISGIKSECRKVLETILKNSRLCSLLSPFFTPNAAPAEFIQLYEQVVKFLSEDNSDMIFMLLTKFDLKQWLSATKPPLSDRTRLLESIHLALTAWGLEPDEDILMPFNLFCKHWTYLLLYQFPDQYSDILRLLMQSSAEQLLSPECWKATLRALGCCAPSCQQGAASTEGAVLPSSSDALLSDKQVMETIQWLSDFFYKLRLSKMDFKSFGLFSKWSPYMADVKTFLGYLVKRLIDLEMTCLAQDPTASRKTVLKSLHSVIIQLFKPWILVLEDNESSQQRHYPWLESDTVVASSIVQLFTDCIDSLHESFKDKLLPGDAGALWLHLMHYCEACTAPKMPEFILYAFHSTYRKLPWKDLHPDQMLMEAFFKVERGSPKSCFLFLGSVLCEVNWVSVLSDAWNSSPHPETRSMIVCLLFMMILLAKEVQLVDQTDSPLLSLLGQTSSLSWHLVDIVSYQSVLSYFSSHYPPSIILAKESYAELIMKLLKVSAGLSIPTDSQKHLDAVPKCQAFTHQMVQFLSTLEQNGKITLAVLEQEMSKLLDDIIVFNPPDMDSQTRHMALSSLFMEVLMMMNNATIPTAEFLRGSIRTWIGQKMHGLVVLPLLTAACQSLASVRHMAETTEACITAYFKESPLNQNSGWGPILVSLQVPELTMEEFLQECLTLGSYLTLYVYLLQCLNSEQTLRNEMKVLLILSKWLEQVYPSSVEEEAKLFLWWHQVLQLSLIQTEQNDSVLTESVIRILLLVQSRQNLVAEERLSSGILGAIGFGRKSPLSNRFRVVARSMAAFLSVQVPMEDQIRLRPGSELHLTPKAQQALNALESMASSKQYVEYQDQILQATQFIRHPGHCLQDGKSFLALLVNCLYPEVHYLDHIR
UniProt P34910: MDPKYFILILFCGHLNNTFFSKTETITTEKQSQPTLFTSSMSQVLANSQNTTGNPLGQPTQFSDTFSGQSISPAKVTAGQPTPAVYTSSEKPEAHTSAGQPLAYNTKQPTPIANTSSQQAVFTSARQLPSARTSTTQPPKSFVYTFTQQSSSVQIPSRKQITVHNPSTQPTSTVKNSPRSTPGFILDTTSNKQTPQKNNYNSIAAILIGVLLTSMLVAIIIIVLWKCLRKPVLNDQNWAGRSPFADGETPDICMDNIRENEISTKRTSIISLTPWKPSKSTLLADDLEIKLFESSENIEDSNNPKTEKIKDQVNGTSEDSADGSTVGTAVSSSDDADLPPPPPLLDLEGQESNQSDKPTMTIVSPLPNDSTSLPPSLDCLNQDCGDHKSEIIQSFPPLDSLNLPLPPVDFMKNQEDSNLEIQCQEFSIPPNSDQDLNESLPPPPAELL

Experiments:
Assay in all cases: log2 fold change, soluble protein after heating vs DMSO (PISA); higher = thermal stabilisation; K562 cells, 10 uM, 30 min; active = over 0.2 and 3.5 SD of the protein, either way, in both replicates (recomputed)
volasertib = compound: CC[C@@H]1C(=O)N(C)c2cnc(Nc3ccc(C(=O)N[C@H]4CC[C@H](N5CCN(CC6CC6)CC5)CC4)cc3OC)nc2N1C(C)C [volasertib]
Method in brief: (§1)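 Soluble protein was quantified by TMTpro 16plex LC-MS/MS after channel sums were equalised. It was obtained as the supernatant after 21,000xg for 90 min from pooled aliquots of K562 cells (2×10^6 cells/mL, 10 μM compound, 30 min) heated for 3 min across 48°C-58°C and extracted in PBS with 0.5% NP-40 at 4°C. Thermal stability values are relative to control samples and come from duplicates. They are given as log2 fold changes.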

[1] = compound: CN(C)CC(=O)Nc1ccc2[nH]c(=O)c3ccccc3c2c1
Method in brief: as §1

[2] = compound: CN1C2=C(C3=C1C(=O)N(N=C3)CC4=CC(=CC=C4)N)SC(=C2)S(=O)C
Method in brief: as §1

saracatinib = compound: CN1CCN(CCOc2cc(OC3CCOCC3)c3c(Nc4c(Cl)ccc5c4OCO5)ncnc3c2)CC1 [saracatinib]
Method in brief: as §1

Tubastatin A = compound: CN1CCc2c(c3ccccc3n2Cc2ccc(C(=O)NO)cc2)C1 [Tubastatin A]
Method in brief: as §1

[3] = compound: CNC(=O)C1=CC=CC=C1NC2=NC(=NC=C2Cl)NC3=C(C=C(C=C3)N4CCOCC4)OC
Method in brief: as §1

defactinib = compound: CNC(=O)c1ccc(Nc2ncc(C(F)(F)F)c(NCc3nccnc3N(C)S(C)(=O)=O)n2)cc1 [defactinib]
Method in brief: as §1

[4] = compound: CNc1nc(-c2ccc3c(N)n[nH]c3c2)cc(N2C[C@@H](C(=O)NC3CCCCC3)CC[C@H]2C)n1
Method in brief: as §1

[5] = compound: COC(=O)[C@H](CCSC)NC(=O)C1=C(C=C(C=C1)NC[C@H](CS)N)C2=CC=CC=C2
Method in brief: as §1

[6] = compound: CCn1c(C(=O)N(C2CC2)C2CC2)cc2c3c(ncn3C)c(Nc3cc(C)n(C)n3)nc21
Method in brief: as §1

[7] = compound: CCn1cc(-c2ccnc3[nH]c(-c4cccc(CN(C)C)c4)cc23)c(-c2ccc(NC(=O)N(C)C)cc2)n1
Method in brief: as §1

[8] = compound: CN1CCC(CNc2ccc3ncc(-c4cccc(OC(F)(F)F)c4)n3n2)CC1
Method in brief: as §1

alvocidib = compound: CN1CC[C@H](c2c(O)cc(O)c3c(=O)cc(-c4ccccc4Cl)oc23)[C@H](O)C1 [alvocidib]
Method in brief: as §1

epoxomicin = compound: CC[C@H](C)[C@@H](C(=O)N[C@@H]([C@@H](C)O)C(=O)N[C@@H](CC(C)C)C(=O)[C@]1(CO1)C)NC(=O)[C@H]([C@@H](C)CC)N(C)C(=O)C [epoxomicin]
Method in brief: as §1

sotrastaurin = compound: CN1CCN(c2nc(C3=C(c4c[nH]c5ccccc45)C(=O)NC3=O)c3ccccc3n2)CC1 [sotrastaurin]
Method in brief: as §1

rosiglitazone = compound: CN(CCOC1=CC=C(C=C1)C[C@H]2C(=O)NC(=O)S2)C3=CC=CC=N3 (racemic) [rosiglitazone]
Method in brief: as §1

Measured: log2 fold change

F2RL3 (UniProt Q96RI0)
inactive: volasertib 0.076 | [1] 0.012 | [2] -0.002 | saracatinib 0.04 | Tubastatin A 0.082 | [3] -0.051 | defactinib 0.009 | [4] 0.005 | [5] 0.008

FADS2 (UniProt O95864)
inactive: [6] 0.159 | [7] -0.295 | [8] 0.038 | [3] 0.242

EVI5 isoform 2 (UniProt O60447)
inactive: volasertib -0.651 | [6] 0.208 | [7] -0.066 | [1] 0.059 | [2] 0.073 | [8] -0.244 | saracatinib -0.036 | alvocidib 0.108 | Tubastatin A 0.4 | [3] -0.111 | defactinib 0.014 | [4] 0.103 | [5] -0.016

EZH2 isoform 2 (UniProt Q15910)
inactive: volasertib -0.259 | epoxomicin 0.131 | [1] 0.022 | [2] 0.155 | saracatinib -0.043 | sotrastaurin 0.001 | Tubastatin A 0.119 | [3] 0.011 | defactinib -0.207 | [4] 0.217 | [5] -0.302

EXD2 (UniProt Q9NVH0)
inactive: volasertib -0.446 | epoxomicin -0.048 | [6] 0.017 | sotrastaurin -0.013 | alvocidib 0.293 | [3] -0.006

EPB41L5 (UniProt Q9HCM4)
inactive: epoxomicin 0.02 | [6] 0.076 | [3] -0.059

EPHX2 (UniProt E5RI53)
inactive: epoxomicin -0.199

ERI1 (UniProt Q8IV48)
inactive: epoxomicin -0.027 | [7] -0.016 | [1] -0.128 | [2] 0.24 | [8] 0.163 | saracatinib -0.16 | alvocidib 0.181 | Tubastatin A 0.209 | defactinib 0.296 | [4] 0.194 | [5] -0.06

FAM110A (UniProt Q9BQ89)
inactive: epoxomicin 0.533 | [7] 0.175 | [8] -0.46

ERICH1 (UniProt Q86X53)
inactive: volasertib 0.2 | Tubastatin A 0.128

FAM171A1 (UniProt Q5VUB5)
inactive: volasertib -0.026 | epoxomicin 0.033 | [6] -0.087 | [7] 0.128 | [1] -0.099 | [8] 0.155 | [3] -0.066 | defactinib -0.063 | [5] 0.015

ESF1 (UniProt Q9H501)
inactive: [7] 0.056 | rosiglitazone 0.332 | [2] 0.25 | [8] 0.122 | saracatinib 0.229 | sotrastaurin -0.017 | [4] -0.03

FAM178B (UniProt Q8IXR5)
inactive: [6] -0.019 | [7] 0.155 | [8] 0.286 | [3] 0.05

F2R (UniProt P25116)
inactive: volasertib -0.171 | [7] 0.011 | [1] -0.071 | [8] -0.487 | alvocidib 0.029 | Tubastatin A -0.118 | defactinib 0.117 | [5] -0.319

EPN1 isoform 3 (UniProt Q9Y6I3)
inactive: rosiglitazone 0.062 | [2] -0.016 | saracatinib -0.304 | [4] 0.18

EPHB4 (UniProt P54760)
inactive: volasertib -0.302 | sotrastaurin -0.057

ERMARD (UniProt Q5T6L9)
inactive: alvocidib -0.018

FAM204A (UniProt Q9H8W3)
inactive: epoxomicin -0.091 | [6] -0.011 | [7] 0.18 | [1] -0.023 | [8] 0.223 | sotrastaurin -0.081 | alvocidib 0.14 | Tubastatin A 0.186 | [3] 0.16 | defactinib 0.281 | [5] 0.203

EXO5 (UniProt Q9H790)
inactive: sotrastaurin 0.136

EYA3 (UniProt Q99504)
inactive: [7] 0.147 | [1] 0.075 | [8] 0.046 | alvocidib -0.077 | Tubastatin A 0.231 | defactinib 0.079 | [5] 0.106

FAM107B isoform 2 (UniProt Q9H098)
inactive: epoxomicin 0.033 | [7] -0.023 | [1] 0.007 | [2] 0.051 | [8] -0.05 | saracatinib 0.092 | defactinib 0.016 | [4] 0.013 | [5] 0.071

FAM114A1 (UniProt Q8IWE2)
inactive: epoxomicin -0.049 | [6] -0.105 | [7] -0.217 | [2] 0.036 | [8] -0.069 | saracatinib 0.086 | Tubastatin A 0.134 | [3] 0.094 | [4] -0.002

EPG5 (UniProt Q9HCE0)
inactive: epoxomicin -0.084 | [2] 0.069 | saracatinib -0.004 | sotrastaurin -0.11 | [4] -0.066

FAM171A2 (UniProt A8MVW0)
inactive: [6] 0.103 | [7] 0.089 | [8] 0.106 | [3] 0.011

EVI2B isoform 2 (UniProt P34910)
inactive: [1] 0.012 | defactinib -0.04 | [5] -0.05

FAM174A (UniProt Q8TBP5)
inactive: [1] 0.051 | Tubastatin A 0.104 | defactinib -0.028 | [5] -0.132

2 entries drawn at random from the list so far, as already listed:
EXO5 (UniProt Q9H790)
inactive: sotrastaurin 0.136

FAM204A (UniProt Q9H8W3)
inactive: epoxomicin -0.091 | [6] -0.011 | [7] 0.18 | [1] -0.023 | [8] 0.223 | sotrastaurin -0.081 | alvocidib 0.14 | Tubastatin A 0.186 | [3] 0.16 | defactinib 0.281 | [5] 0.203

Next part

ERF (UniProt P50548)
inactive: epoxomicin 0.068 | [7] -0.052 | [8] 0.319 | sotrastaurin -0.058 | Tubastatin A 0.377 | [3] 0.069

ERCC1 isoform 3 (UniProt P07992)
inactive: volasertib -0.147 | [2] 0.006 | saracatinib 0.104 | sotrastaurin 0.05 | alvocidib 0.351 | [4] -0.028

FAM102B (UniProt Q5T8I3)
inactive: volasertib -0.059 | epoxomicin 0.066 | [1] -0.038 | defactinib -0.172 | [5] 0.083

F13B (UniProt P05160)
inactive: [1] -0.127 | alvocidib -0.067 | Tubastatin A -0.123 | defactinib 0.081 | [5] 0.275
